This assay addresses CFP10 in pBTnn (bacterial two-hybrid bait) (M. tuberculosis (H37Rv)) (UniProt P9WNK5). As to the kind of experiment: two-hybrid.

The chains behind the UniProt entries cited, without tags or fusion partners.
UniProt P9WNK5: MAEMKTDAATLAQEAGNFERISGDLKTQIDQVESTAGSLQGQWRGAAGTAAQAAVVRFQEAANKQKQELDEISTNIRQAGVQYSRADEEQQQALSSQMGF

No constants are given. Whether binding was seen depends on the method and setting. Some results given as binding are weak or reduced against the parent protein; the word gives no strength.

Turning to “ESAT6 in pTRGnn (bacterial two-hybrid target) (from UniProt P9WNK7 1-95)”, the binding entry is given as “binds”.

B1: Rv3871 in pTRGnn (bacterial two-hybrid target) (protein, UniProt P9WNB1 1-591)
chain: MTAEPEVRTLREVVLDQLGTAESRAYKMWLPPLTNPVPLNELIARDRRQPLRFALGIMDEPRRHLQDVWGVDVSGAGGNIGIGGAPQTGKSTLLQTMVMSAAATHSPRNVQFYCIDLGGGGLIYLENLPHVGGVANRSEPDKVNRVVAEMQAVMRQRETTFKEHRVGSIGMYRQLRDDPSQPVASDPYGDVFLIIDGWPGFVGEFPDLEGQVQDLAAQGLAFGVHVIISTPRWTELKSRVRDYLGTKIEFRLGDVNETQIDRITREIPANRPGRAVSMEKHHLMIGVPRFDGVHSADNLVEAITAGVTQIASQHTEQAPPVRVLPERIHLHELDPNPPGPESDYRTRWEIPIGLRETDLTPAHCHMHTNPHLLIFGAAKSGKTTIAHAIARAICARNSPQQVRFMLADYRSGLLDAVPDTHLLGAGAINRNSASLDEAVQALAVNLKKRLPPTDLTTAQLRSRSWWSGFDVVLLVDDWHMIVGAAGGMPPMAPLAPLLPAAADIGLHIIVTCQMSQAYKATMDKFVGAAFGSGAPTMFLSGEKQEFPSSEFKVKRRPPGQAFLVSPDGKEVIQAPYIEPPEEVFAAPPSAG
On to B1, for which the binding entry is recorded as “binds”.

Values taken from PMC3210800.
